Measurements as given in publication doi:10.1101/2021.06.22.449524.
No constants are given. Whether binding was seen depends on the method and setting. In cells and extracts the contact can be indirect. Some entries that bind do so weakly or less than the wild type.

Biological target: T1, potassium channel tetramerization domain containing 19 (KCTD19) (mouse (endogenous in testis)) (UniProt Q562E2)
T1 sequence: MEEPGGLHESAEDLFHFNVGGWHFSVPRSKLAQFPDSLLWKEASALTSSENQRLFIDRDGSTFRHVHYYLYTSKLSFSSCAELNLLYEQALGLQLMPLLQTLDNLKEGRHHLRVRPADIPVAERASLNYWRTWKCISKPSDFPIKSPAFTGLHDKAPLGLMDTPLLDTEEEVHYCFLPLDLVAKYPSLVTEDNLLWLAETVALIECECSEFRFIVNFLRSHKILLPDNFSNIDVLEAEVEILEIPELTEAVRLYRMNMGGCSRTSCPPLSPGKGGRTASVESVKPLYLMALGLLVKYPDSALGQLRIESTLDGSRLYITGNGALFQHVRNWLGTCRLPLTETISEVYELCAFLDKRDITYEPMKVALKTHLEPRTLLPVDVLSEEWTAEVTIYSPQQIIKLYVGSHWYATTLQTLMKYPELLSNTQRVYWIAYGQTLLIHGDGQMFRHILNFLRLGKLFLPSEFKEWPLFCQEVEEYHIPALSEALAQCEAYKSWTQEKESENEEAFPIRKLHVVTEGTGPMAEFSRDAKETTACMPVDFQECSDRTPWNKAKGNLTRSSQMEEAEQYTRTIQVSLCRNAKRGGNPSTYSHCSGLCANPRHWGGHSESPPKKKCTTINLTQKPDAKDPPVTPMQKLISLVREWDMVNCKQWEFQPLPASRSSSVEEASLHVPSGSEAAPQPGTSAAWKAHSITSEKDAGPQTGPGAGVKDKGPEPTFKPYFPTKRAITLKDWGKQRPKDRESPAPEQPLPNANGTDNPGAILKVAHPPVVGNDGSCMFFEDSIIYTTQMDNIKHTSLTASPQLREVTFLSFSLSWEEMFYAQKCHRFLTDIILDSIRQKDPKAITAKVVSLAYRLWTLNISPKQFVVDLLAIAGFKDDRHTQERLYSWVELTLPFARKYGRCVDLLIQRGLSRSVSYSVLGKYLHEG
Assay: co-IP

binding: binds
B1: zinc finger protein 541 (ZFP541) (protein, UniProt Q0GGX2 1-1363)
chain: MEPYSLGEEGALPSEGHLPSFSESQVLNCSDTLNRDLGPSTRDLLYAGLSGLDLDPSLSTSDMPSEVLEDNLDTLSLYSGKDSDSVKLLEEYADSESQTSLQDLGLGALKVPKEADEGGRATGSTRKGKRQHSSPQNPLLDCSLCGKVFSSASSLSKHYLTHSQERKHVCKVCSKAFKRQDHLTGHMLTHQKTKPFVCIEQGCSKSYCDYRSLRRHYEVQHGVCILKETPPEEEAYGDPTHNHDVANQPPPSGLRSLGPPEARSPGSVLPNRDLLRCIVSSIVHQKIPSPGPAVGPSDTEARSSACACPTSLGSSSCTPASTPVALGTLGSEIPEETHPPRKEAATEVFTPVQSRAAENGVPDPPESELESESPRLQRPSSLEGWPEGSSLPACLPLFRGHSVPSGSQPSSHNFQWLRNLPGCPKNKGSNVFMVHKPPAVASREGSEGGGSGPSSTPTSVEPSPSLGTTQEELLPFPPALLKAPGEASSEVRQAAGEDETWAPKKCKPDCESFPWQSPTELGLQDAQNPGGLPSDATPLFRQLFMKSQESLVSHEQMQVLQMIAKSQRIFSHTQVATASAQRPGPEGKQSTLKPLQGPWPPQTLPPAPTVDSFQIGPGHSEPEGSPVRRRKTMPAVSRETSPGGPRRDTKGGPKVASAPPSLTGPGLLPSRNPDSSSLAKGTLDLGDIIPNAGSRQSQLGGDEPAGTQLVGKQGQGENGLASGAMRGEKGPACPRGGGYRLFSGHPRAQRFSGFRKEKVKMDVCCAASPSQVAMASFSSAGPLADPPRDMKSKLTIFNRIQGGNIYRLPHPVKEESLAGGCHQPNGGPTDWMESKSTFVCKNCSQMFYTEKGLSSHMCFHSDQWPSPRGKQEQQVKGQMVASVKRKAGREEGAVEDMKRHYDCSSSEPQDVTILSMLVSSGSCGVTPVVLSSLLQGQEKDGEERDSKESCQYRKRKKRPQPKALFAPPAPSALGEPGPGGCHQSCLHSPVFLVDHLLKGLFQCSPYTPPPMLSPIREGSGLYFNTLCSTSRAGPHLISPVLDQVDSSFGICVVKDDTKISIEPHINVGSRFQAEIPELQERLLARVDENVASLVWKPWGDVMTNPETQDRVMELCNVACSSVMPGGGTNLELALHCLHDAQGSVQVALETLLLRGPQKPRTHPLADYRYTGSDIWTPMEKRLFKKAFCAHKKDFYLIHKMIQTKSVAQCVEYYYIWKKMVKFDCGRAPGLEKRGRRELDEVERTEDKVTCSPRERPTHRPTPELKIKTKSYRRESILHSSPSAAPKRTPEPPGSVESQGVFPCRECERVFDKIKSRNAHMKRHRLQEHVEPVRVKWPVKPYPLKEEEEEEEEELGADMGPLQW
